Results on one compound are retold here after patent US20220032023A1, “ULTRA-SHARP MICRONEEDLE” (THE TRUSTEES OF COLUMBIA UNIVERSITY IN THE CITY OF NEW YORK, priority 2019, published 2022).

The assay relates to guinea pig perilymph proteome. The settings on record: for abundance ratio (IP Dex/control): IP 10 mg/kg.

Molecules are shown by their SMILES. Where two headings read alike, the source gives them in different places.

For `C[C@@H]1C[C@H]2[C@@H]3CCC4=CC(=O)C=C[C@]4(C)[C@@]3(F)[C@@H](O)C[C@]2(C)[C@@]1(O)C(=O)COP(=O)(O)O` [Dex, Dexamethasone sodium phosphate], the “abundance ratio (IP Dex/control)” value is, setting by setting: (Dickkopf WNT signaling pathway inhibitor 3 (DKK3, H0V7V7_CAVPO), perilymph 6 h) 1.97; (SMB domain-containing protein (Vtn, H0V077_CAVPO), perilymph 6 h) 1.57; (SPARC like 1 (SPARCL1, H0UW89_CAVPO), perilymph 6 h) 3.82; (VGF nerve growth factor inducible (VGF, H0VZA9_CAVPO), perilymph 6 h after dosing) 3.20; (amyloid β precursor like protein 1 (APLP1, H0V8E0_CAVPO), perilymph 6 h) 2.44; (annexin (ANXA2, H0V7P8_CAVPO), perilymph 6 h) 0.59. Further, the “abundance ratio (IP Dex/control)” value by setting is: (complement C5 (C5, H0UY41_CAVPO), perilymph 6 h) 3.56; (elongation factor 1-α (H0W9I8_CAVPO), perilymph 6 h) 0.38; (enolase 3 (ENO3, H0VN20_CAVPO), perilymph 6 h) 0.09; (fructose-bisphosphate aldolase (ALDOC, H0W3T8_CAVPO), perilymph 6 h) 0.26; (heat shock protein family A (Hsp80) member 5 (Hspa5, H0VLM3_CAVPO), perilymph 6 h) 0.67; (neural EGFL-like 2 (NELL2, H0UV55_CAVPO), perilymph 6 h) 1.78. In addition, the “abundance ratio (IP Dex/control)” value (neuronal cell adhesion molecule (NRCAM, H0V7Q6_CAVPO), perilymph 6 h) is 3.34 and the “abundance ratio (IP Dex/control)” value (tyrosine 3-monooxygenase/tryptophan 5-monooxygenase activation protein γ (YWHAG, A0A286XP66_CAVPO), perilymph 6 h) was 0.42. Besides, the “abundance ratio (IT Dex/control)” value (Insulin-like growth factor binding protein 2 (IGPBP2, H0W263_CAVPO), intratympanic 0.5 mg, perilymph 6 h) worked out at 0.60; the “abundance ratio (IT Dex/control)” value (VGF nerve growth factor inducible (VGF, H0VZA9_CAVPO), intratympanic 50 μL of 10 mg/mL (0.5 mg), perilymph 6 h) was determined as 2.23; the “abundance ratio (IT Dex/control)” value (tyrosine 3-monooxygenase/tryptophan 5-monooxygenase activation protein γ (YWHAG, A0A286XP66_CAVPO), intratympanic 0.5 mg, perilymph 6 h) turned out to be 0.41.
